Laboratory results as given in patent US8563744B2, “3-amino-benzo [D] isothiazole dioxide derivatives and their use as pesticides” (Syngenta Crop Protection, LLC, priority 2008, dated 2013).
Some results were stated once for a whole list of compounds, not compound by compound.

Columns and labels:
Format in all cases: in vivo
[1] = system: Myzus persicae; test: B3: Myzus persicae (green peach aphid), mixed population, systemic/feeding activity, curative; details: roots of infested pea seedlings placed in test solutions of 24 ppm, 6 days after introduction
Source text: B3: Myzus persicae (green peach aphid) (mixed population, systemic/feeding activity, curative)
Roots of pea seedlings, infested with an aphid population of mixed ages, are placed directly in the test solutions of 24 ppm. 6 days after introduction, samples are checked for mortality and special effects on the plant.

[2] = system: Myzus persicae; test: B1: Myzus persicae (green peach aphid), mixed population, sachet test; details: 12.5 ppm test compound in 30% sucrose solution, parafilm sachet, 6 days after infestation
Protocol: B1: Myzus persicae (green peach aphid) (mixed population, sachet test)
Each well of a 24-well microtiter plate is filled with 0.6 ml 30% sucrose solution, containing 12.5 ppm of the test compounds. For producing the sachets, the wells are covered with streched parafilm and infested with a mixed population of Myzus persicae. 6 days after the infestation, samples are checked for mortality (feeding activity).

[3] = system: Myzus persicae; test: B2: Myzus persicae (green peach aphid), mixed population, feeding/residual contact activity, preventive; details: sunflower leaf discs sprayed with test solutions of 200 ppm, aphid population of mixed ages, 6 days incubation
Protocol: B2: Myzus persicae (green peach aphid) (mixed population, feeding/residual contact activity, preventive)
Sunflower leaf discs are placed on agar in a 24-well microtiter plate and sprayed with test solutions of 200 ppm. After drying, the leaf discs are infested with an aphid population of mixed ages. After an incubation period of 6 days, samples are checked for mortality and special effects (e.g. phytotoxicity).

| Compound | control of Myzus persicae (mortality) [1] | control of Myzus persicae (mortality, feeding activity) [2] | control of Myzus persicae (mortality) [3] |
| --- | --- | --- | --- |
| C#CCNC1=NS(=O)(=O)c2c(F)cccc21 [Compound P1.21] | at least 80% |  |  |
| Cc1ccc2c(c1)C(N)=NS2(=O)=O [Compound P1.8] | at least 80% | at least 80% | at least 80% |
| CNC1=NS(=O)(=O)c2c(Cl)cccc21 [Compound P1.11] | at least 80% |  | at least 80% |
| NC1=NS(=O)(=O)c2c(Cl)cc(Cl)cc21 [Compound P1.10] | at least 80% | at least 80% |  |
| NC1=NS(=O)(=O)c2c(F)cccc21 [Compound P1.3] | at least 80% | at least 80% | at least 80% |
| CCNC1=NS(=O)(=O)c2c(F)cccc21 [Compound P1.16] | at least 80% |  | at least 80% |
| Cc1cccc2c1S(=O)(=O)N=C2N [Compound P1.9] | at least 80% |  | at least 80% |
| O=S1(=O)N=C(NC2CC2)c2cccc(F)c21 [Compound P1.20] | at least 80% |  |  |
| CC(C)CNC1=NS(=O)(=O)c2c(F)cccc21 [Compound P1.22] | at least 80% |  |  |
| NC1=NS(=O)(=O)c2c1cccc2C(F)(F)F [Compound P1.6] |  | at least 80% |  |
| C=CCNC1=NS(=O)(=O)c2c(F)cccc21 [Compound P1.19] | at least 80% |  |  |
| CCCNC1=NS(=O)(=O)c2c(F)cccc21 [Compound P1.17] | at least 80% |  |  |
| CN1C(=N)c2cccc(Br)c2S1(=O)=O [Compound P2.2] |  | at least 80% | at least 80% |
| NC1=NS(=O)(=O)c2c(Cl)cccc21 [Compound P1.2] | at least 80% | at least 80% | at least 80% |
| CC(C)NC1=NS(=O)(=O)c2c(F)cccc21 [Compound P1.18] | at least 80% |  |  |
| CNC1=NS(=O)(=O)c2c(C)cccc21 [Compound P1.13] | at least 80% |  | at least 80% |
| Cc1cc(C)c2c(c1)C(N)=NS2(=O)=O [Compound P1.7] | at least 80% | at least 80% | at least 80% |
| CCNC1=NS(=O)(=O)c2c(Cl)cccc21 [Compound P1.12] | at least 80% |  |  |
